The values that follow come from paper PMC6150240, “Synthesis and 2D-QSAR Study of Active Benzofuran-Based Vasodilators” (Molecules : A Journal of Synthetic Chemistry and Natural …, 2017).

Structures can show the parent of a compound that is named as a salt.

This experiment concerns isolated thoracic aortic rings of male Wistar rats. Put plainly: Vasodilation activity screening: isolated thoracic aortic rings pre-contracted with norepinephrine hydrochloride. The conditions noted are these: Rattus norvegicus, norepinephrine hydrochloride 10^−6 M, three replicates, read-out: Potency (IC50), concentration necessary for 50% reduction of maximal norepinephrine hydrochloride induced contracture. As to the method:
The vasodilation activity screening procedures were carried out according to the standard reported techniques by testing the effects of the synthesized 2-alkoxy-4-aryl-6-(benzofuran-2-yl)-3-pyridinecarbonitriles 4a–x on isolated thoracic aortic rings of male Wistar rats (250–350 g). After light ether anesthesia, the rats were sacrificed by cervical dislocation. The aortae were immediately excised, freed of extraneous tissues and prepared for isometric tension recording. Aorta was cut into (3–5 mm width) rings and each ring was placed in a vertical chamber “10 mL jacketed automatic multi-chamber organ bath system (Model no. ML870B6/C, Panlab, Spain)” filled with Krebs solution composed of (in mM): NaCl, 118.0; KCl, 4.7; NaHCO3, 25.0; CaCl2, 1.8; NaH2PO4, 1.2; MgSO4, 1.2; glucose, 11.0 and oxygenated with carbogen gas (95% O2/5% CO2) at 37 ± 0.5 °C. Each aortic ring was mounted between two stainless steel hooks passed through its lumen. […] Preparations were stabilized under 2 g resting tension during 2 h and then the contracture response to norepinephrine hydrochloride (10^−6 M) was measured before and after exposure to increasing concentrations of the tested synthesized compounds. […]

For `CCCCc1oc2ccccc2c1C(=O)c1cc(I)c(OCCN(CC)CC)c(I)c1` [Amiodarone.HCl, amiodarone hydrochloride, reference compound], the IC50 amounted to 300 µM.
